Source: US20080260858A1, “Universal Procoagulant” (The Board of Trustees of the University of Illnois, priority 2005, published 2008)
Some of these results come from one statement about several compounds together. For at least one compound, name, drawing or mass did not settle the structure.

Columns and labels:
pooled normal plasma [1] = assay: PT clotting assay with modified thromboplastin reagents; format: biochemical, human; settings: metal ion 0 to 90 μM; NTA-lipids (100 μM lipid); 30 ng/ml sTF-5AA-(His)6; data not shown
Experimental: Thromboplastin reagents containing TF and phospholipids were prepared and diluted to various concentrations of TF. The diluted thromboplastin reagents were then used in the PT assay (FIG. 4). The four modified thromboplastin reagents were made as follows: 1. 100 ng/ml rTF relipidated in PCPS vesicles (30 μM), 2. […] The thromboplastin reagents were diluted in TA (50 mM Tris-HCl buffer, pH 7.5, 0.1% bovine serum albumin, 0.1% NaN3) to varying concentrations of TF.
The modified aPTT reagent contained varying concentrations of the indicated metal salts, NTA-lipids (100 μM lipid), 0.08% (w/v) sodium azide, and 16 mM Hepes buffer, pH 7.4. […]
PT clotting assay—PT assays were performed in a model ST4 coagulometer (Diagnostica Stago) by pipetting 50 μl of 25 mM CaCl2 and 50 μl diluted thromboplastin reagent into a coagulometer cuvette and allowing the mixture to warm to 37° C. for 2 min. Clotting was then initiated by pipetting 50 μl pre-warmed, pooled normal plasma into the cuvette and the time to clot formation recorded.

pooled normal plasma [2] = assay: aPTT clotting assay; format: biochemical, human; settings: metal ion 0 to 90 μM; NTA-lipids (100 μM lipid); data not shown
Experimental: The modified aPTT reagent contained varying concentrations of the indicated metal salts, NTA-lipids (100 μM lipid), 0.08% (w/v) sodium azide, and 16 mM Hepes buffer, pH 7.4.
aPTT assays were performed with modified aPTT reagents containing varying concentrations of NiSO4, CoCl2, CuSO4, ZnCl2, FeSO4, CdCl2, CrCl2, AgNO3 or MnCl2 in the presence of NTA-lipids (FIG. 12C). […] Co^2+ and Zn^2+ some activity (see FIG. 12C). […] Ni^2+ performed substantially better in this assay than did Cu^2+.
aPTT clotting assay—aPTT clotting assays were also carried out in a model ST4 coagulometer (Diagnostica Stago). The aPTT assays were performed by pipetting 50 μl of an aPTT reagent and 50 μl pooled normal plasma into a coagulometer cuvette and incubating the mixture for 3 min at 37° C. 50 μl prewarmed 25 mM CaCl2 was then pipetted into the cuvette and the time to clot formation was recorded.

[Cl][Cd][Cl] [Cd^2+, CdCl2]
PT clotting time (pooled normal plasma [1]): > 200 s | aPTT clotting time (pooled normal plasma [2]): > 200 s

[Cl][Cr][Cl] [Cr^2+, CrCl2]
PT clotting time (pooled normal plasma [1]): > 200 s | aPTT clotting time (pooled normal plasma [2]): > 200 s
